The assay concerns BDF1 mice, B16 melanoma ip, median survival T/C. Put plainly: NCI In Vivo Anticancer Drug Screen. Data for tumor model B16 Melanoma (intraperitoneal) in B6D2F1 (BDF1) mice. To be noted: T/C endpoint: median survival time, higher T/C = longer survival. As to the method:
The antitumor activity of compounds was measured in mice bearing transplantable tumors. Survival or tumor size were measured and the results are expressed as the measurement made in the treated group (T) divided by the measurement made in the vehicle treated control group (C). The tumor model used in this assay is B16 Melanoma (intraperitoneal) in B6D2F1 (BDF1) mice

Setting [1] is: dose: 0.38 mg/kg/injection, schedule: Q04DX003 (ip), vehicle: other.
The mark [2] stands for this setting: dose: 0.75 mg/kg/injection, schedule: Q04DX003 (ip), vehicle: other.
Where [3] appears, read: dose: 1.5 mg/kg/injection, schedule: Q04DX003 (ip), vehicle: other.
Setting [4] is: dose: 3.0 mg/kg/injection, schedule: Q04DX003 (ip), vehicle: other.

The list does not hold the whole screen: its compounds were picked by chemical class. Not every dose and run of a compound is shown. T/C: endpoint of the treated group in % of that of the vehicle group. For survival time, this PubChem deposit counts one and a half times the control or more as active, and values a quarter to a half above the control carry no call in these data; other NCI protocols may use other cut-offs. Schedule codes are those of the source, read here as Q, the interval in days (D) or hours (H), X, the number of doses. Some T/C values are marked as having no survivor count here; that says nothing about deaths at the dose. Some entries hold several experiments; the values are given in rising order.

With `CC1=C[C@H]2O[C@@H]3C[C@H]4OC(=O)/C=C\C=C\C(C(C)O)OCC[C@@H](C)[C@H](O)C(=O)OC[C@@]2(CC1)[C@]4(C)[C@]31CO1` (some centres undefined), the T/C is 137 % of control [survivor count not shown] (dose: 0.04 mg/kg/injection, schedule: Q01DX009 (ip), vehicle: saline with Tween-80); 116 % of control [survivor count not shown] (dose: 0.09 mg/kg/injection, schedule: Q04DX003 (ip), vehicle: other); 159 % of control [survivor count not shown] (dose: 0.19 mg/kg/injection, schedule: Q04DX003 (ip), vehicle: other); 159 % of control [survivor count not shown] under setting [1]; 105 % of control [survivor count not shown] (dose: 77.8 micrograms/kg/injection, schedule: Q04DX003 (ip), vehicle: saline + alcohol); 116 % of control [survivor count not shown] (dose: 130.0 micrograms/kg/injection, schedule: Q04DX003 (ip), vehicle: saline + alcohol). In addition, the T/C (dose: 216.0 micrograms/kg/injection, schedule: Q04DX003 (ip), vehicle: saline + alcohol) was 113 % of control [survivor count not shown] and the T/C (dose: 360.0 micrograms/kg/injection, schedule: Q04DX003 (ip), vehicle: saline + alcohol) was 121 % of control [survivor count not shown].

On to `CC(=O)OC[C@]12C[C@H](OC(=O)CC(C)C)C(C)=C[C@H]1OC1[C@H](O)[C@@H](OC(C)=O)[C@@]2(C)[C@@]12CO2`, for which the T/C (dose: 0.12 mg/kg/injection, schedule: Q01DX009 (ip), vehicle: saline) is 152 % of control [survivor count not shown]; the T/C (dose: 0.25 mg/kg/injection, schedule: Q01DX009 (ip), vehicle: saline) was 149 % of control [survivor count not shown]; the T/C (dose: 0.32 mg/kg/injection, schedule: Q01DX009 (ip), vehicle: Klucel (hydroxypropylcellulose) (HPC)) is 128 % of control [survivor count not shown]; the T/C under setting [1] was 107 % of control [survivor count not shown]; the T/C (dose: 0.5 mg/kg/injection, schedule: Q01DX009 (ip), vehicle: saline) was 150 % of control [survivor count not shown]; the T/C (dose: 0.63 mg/kg/injection, schedule: Q01DX009 (ip), vehicle: Klucel (hydroxypropylcellulose) (HPC)) was 148 % of control [survivor count not shown]. Also, the T/C is 111 % of control [survivor count not shown] under setting [2]; 149 % of control [survivor count not shown] (dose: 1.0 mg/kg/injection, schedule: Q01DX009 (ip), vehicle: saline); 114 % of control [survivor count not shown] (dose: 1.08 mg/kg/injection, schedule: Q04DX003 (ip), vehicle: saline + alcohol); 141 % of control [survivor count not shown] (dose: 1.25 mg/kg/injection, schedule: Q01DX009 (ip), vehicle: Klucel (hydroxypropylcellulose) (HPC)); 116 % of control [survivor count not shown] under setting [3]; 116 % of control [survivor count not shown] (dose: 1.8 mg/kg/injection, schedule: Q04DX003 (ip), vehicle: saline + alcohol). Besides, the T/C runs as follows: (dose: 2.0 mg/kg/injection, schedule: Q01DX009 (ip), vehicle: saline) 156 % of control [survivor count not shown]; under setting [4], 107 % of control [survivor count not shown]; (dose: 3.0 mg/kg/injection, schedule: Q04DX003 (ip), vehicle: saline + alcohol) 116 % of control [survivor count not shown]; (dose: 648.0 micrograms/kg/injection, schedule: Q04DX003 (ip), vehicle: saline + alcohol) 115 % of control [survivor count not shown]; (dose: 648.0 micrograms/kg/injection, schedule: Q04DX003 (sc), vehicle: saline + alcohol) 115 % of control [survivor count not shown]; (dose: 1080.0 micrograms/kg/injection, schedule: Q04DX003 (ip), vehicle: saline + alcohol) 111 % of control [survivor count not shown]. The T/C (dose: 1080.0 micrograms/kg/injection, schedule: Q04DX003 (sc), vehicle: saline + alcohol) was 109 % of control [survivor count not shown]; the T/C (dose: 1800.0 micrograms/kg/injection, schedule: Q04DX003 (ip), vehicle: saline + alcohol) was 103 % of control [survivor count not shown]; the T/C (dose: 1800.0 micrograms/kg/injection, schedule: Q04DX003 (sc), vehicle: saline + alcohol) was 114 % of control [survivor count not shown]; the T/C (dose: 3000.0 micrograms/kg/injection, schedule: Q04DX003 (ip), vehicle: saline + alcohol) is 110 % of control [survivor count not shown]; the T/C (dose: 3000.0 micrograms/kg/injection, schedule: Q04DX003 (sc), vehicle: saline + alcohol) is 129 % of control [survivor count not shown].

In the case of `CC1=C[C@H]2O[C@@H]3[C@H](OC(=O)CCl)[C@@H](O)[C@](C)(C2(COC(=O)CCl)CC1)[C@@]31CO1` (some centres undefined), the T/C is 103 % of control [survivor count not shown] (dose: 0.75 mg/kg/injection, schedule: Q01DX009 (ip), vehicle: saline + alcohol); 108 % of control [survivor count not shown] (dose: 1.5 mg/kg/injection, schedule: Q01DX009 (ip), vehicle: saline + alcohol); 114 % of control [survivor count not shown] (dose: 3.0 mg/kg/injection, schedule: Q01DX009 (ip), vehicle: saline + alcohol); 122 % of control [survivor count not shown] (dose: 6.0 mg/kg/injection, schedule: Q01DX009 (ip), vehicle: saline + alcohol); 115 % of control [survivor count not shown] (dose: 12.0 mg/kg/injection, schedule: Q01DX009 (ip), vehicle: saline + alcohol).

As for `CC1=C[C@H]2O[C@@H]3C[C@H]4OC(=O)/C=C\C=C\[C@H]([C@@H](C)O)OC[C@H](O)[C@@]5(C)O[C@@H]5C(=O)OC[C@@]2(C[C@H]1O)[C@]4(C)C31CO1` (some centres undefined), the T/C reads like this: under setting [2], 178 % of control [survivor count not shown]; under setting [3], 187 % of control [survivor count not shown]; under setting [4], 165 % of control [survivor count not shown].

Consider `CC(=O)OCC12CC(O)C(C)=CC1OC1C(O)C(OC(C)=O)C2(C)C12CO2` (centres undefined), for which the T/C is, setting by setting: (dose: 0.31 mg/kg/injection, schedule: Q01DX009 (ip), vehicle: saline) 131 % of control [survivor count not shown]; (dose: 0.62 mg/kg/injection, schedule: Q01DX009 (ip), vehicle: saline) 153 % of control [survivor count not shown]; (dose: 0.63 mg/kg/injection, schedule: Q01DX009 (ip), vehicle: saline) 160 % of control [survivor count not shown]; (dose: 1.25 mg/kg/injection, schedule: Q01DX009 (ip), vehicle: saline) 138 [survivor count not shown] and 159 % of control [survivor count not shown]; (dose: 2.5 mg/kg/injection, schedule: Q01DX009 (ip), vehicle: saline) 154 [survivor count not shown] and 167 % of control [survivor count not shown].

The values above are taken from PubChem BioAssay AID192 (DTP/NCI, 2004).
